This passage reports binding results from article PMC7960550.

The chains behind the UniProt entries cited, without tags or fusion partners. Where a name states a change or a piece, a line headed by the entry shows the natural chain unless it says otherwise.
UniProt Q9H040: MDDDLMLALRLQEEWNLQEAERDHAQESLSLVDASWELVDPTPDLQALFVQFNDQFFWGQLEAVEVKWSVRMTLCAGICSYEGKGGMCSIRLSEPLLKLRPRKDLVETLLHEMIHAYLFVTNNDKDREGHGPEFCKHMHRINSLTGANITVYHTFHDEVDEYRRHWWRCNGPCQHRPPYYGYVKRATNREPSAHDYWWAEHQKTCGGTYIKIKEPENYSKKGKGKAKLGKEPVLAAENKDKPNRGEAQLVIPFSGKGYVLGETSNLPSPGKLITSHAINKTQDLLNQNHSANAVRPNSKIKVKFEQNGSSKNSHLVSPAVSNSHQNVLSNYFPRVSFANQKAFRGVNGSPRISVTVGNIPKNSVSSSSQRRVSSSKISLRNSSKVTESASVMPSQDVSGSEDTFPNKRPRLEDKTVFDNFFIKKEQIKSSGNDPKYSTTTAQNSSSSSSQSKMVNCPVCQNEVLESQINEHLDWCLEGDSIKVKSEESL
UniProt P51784: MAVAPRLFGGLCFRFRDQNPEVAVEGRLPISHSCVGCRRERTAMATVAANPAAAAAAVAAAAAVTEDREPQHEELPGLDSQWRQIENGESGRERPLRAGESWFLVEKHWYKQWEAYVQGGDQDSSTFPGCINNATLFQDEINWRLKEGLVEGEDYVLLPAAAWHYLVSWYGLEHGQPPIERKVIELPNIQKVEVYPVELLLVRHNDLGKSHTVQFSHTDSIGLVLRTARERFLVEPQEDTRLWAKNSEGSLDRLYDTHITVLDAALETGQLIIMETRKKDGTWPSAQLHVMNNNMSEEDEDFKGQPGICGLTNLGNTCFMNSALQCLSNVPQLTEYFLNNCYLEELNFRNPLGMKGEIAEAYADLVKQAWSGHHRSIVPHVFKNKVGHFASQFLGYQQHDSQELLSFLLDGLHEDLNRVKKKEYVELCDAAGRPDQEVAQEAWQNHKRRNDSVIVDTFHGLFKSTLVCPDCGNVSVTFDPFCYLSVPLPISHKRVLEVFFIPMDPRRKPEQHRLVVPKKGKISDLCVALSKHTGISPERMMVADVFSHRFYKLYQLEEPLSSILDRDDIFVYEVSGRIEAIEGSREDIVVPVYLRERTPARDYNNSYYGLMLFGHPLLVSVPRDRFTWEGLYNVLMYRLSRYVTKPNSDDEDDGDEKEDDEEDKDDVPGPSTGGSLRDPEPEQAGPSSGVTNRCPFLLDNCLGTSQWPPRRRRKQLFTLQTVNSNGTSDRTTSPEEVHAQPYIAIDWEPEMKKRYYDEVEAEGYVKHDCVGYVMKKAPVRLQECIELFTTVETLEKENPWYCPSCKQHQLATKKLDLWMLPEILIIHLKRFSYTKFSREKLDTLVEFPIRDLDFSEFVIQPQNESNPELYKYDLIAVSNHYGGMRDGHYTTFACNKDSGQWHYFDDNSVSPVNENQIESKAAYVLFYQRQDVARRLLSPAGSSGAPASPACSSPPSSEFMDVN

Results are given in words; binding and its absence hold for the method and conditions named. Binding seen in cells or lysates may run through a third protein.

This assay deals with SFB-SPRTN ΔSprT (UniProt Q9H040). The assay is described as follows: co-IP; HEK 293T cells transfected with SFB-tagged (and Myc-tagged) constructs, 24 h; lysed in NETN buffer; S-protein agarose beads overnight at 4 °C; western blot; SFB-SPRTN with USP11 also after 20 μM VP16 for 4 h, CPT, formaldehyde or hydroxyurea (slight increase). In general terms: A western blot detects proteins with antibodies after separation by electrophoresis.

“Endogenous USP11 (from UniProt P51784 1-963)”: the binding entry is given as “no binding”.
Turning to “Myc-USP11 full-length (FL) (from UniProt P51784 1-963)”, the binding entry is listed as “no binding”.
